From the supplement of paper PMC12764529
± gives the half width of the 95% confidence interval. For many entries, trypsin and chymotrypsin gave values far apart.

Legend:
[1] = folding stability dG unfold from trypsin proteolysis; higher = more stable
Protocol: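 Folding stability of de novo designed mini-proteins (<80 aa, no Cys; designed by TrROS, TrMRF, ProteinMPNN and the joint model) was measured by cDNA display proteolysis with trypsin and chymotrypsin. Each protease was used at 11 concentrations in a threefold dilution series plus a no-protease condition. K50 was inferred by Bayesian fitting of sequencing counts, and dG unfold was derived against a sequence-predicted unfolded-state K50 (Tsuboyama et al. method). Sequences shown include variable-length N-terminal GS-type padding (SAGGSAGG...) inside a display construct carrying a PA tag. Rows were kept only if the AF2 dimer inter-PAE was >15, to exclude likely homo-oligomers.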

[2] = folding stability dG unfold from chymotrypsin proteolysis; higher = more stable
Summary of the method: (§1)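 Designed mini-proteins (under 80 residues, no cysteine) in a PA-tagged cDNA display construct were digested with trypsin and chymotrypsin. Each protease was used at 11 concentrations (threefold dilutions) plus a no-protease condition, followed by sequencing. K50 was inferred by Bayesian fitting of sequencing counts, and unfolding free energy was derived against a sequence-predicted unfolded-state K50 and a shared folded-state K50, per protease or combined. Only designs with AlphaFold2 dimer inter-PAE above 15 were kept.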

[3] = folding stability dG unfold (combined trypsin and chymotrypsin); higher = more stable
Summary of the method: as §1

Sequence | folding stability dG unfold [1] | folding stability dG unfold [2] | folding stability dG unfold [3]
SAGGSAGGPTLRLVVRDEDGNLYVFELEEVEDPEGRKYYRLRVTRVTLKDGKLEVETREVTLPVSAGGSAGG [r6_246_TrROS_Hall] | 3.95 ± 0.066 kcal/mol | 6.07 ± 0.086 kcal/mol | 5.96 ± 0.15 kcal/mol
SAGGSAMKFKIVSVEYDKETKTIRVKVEVDGKLVEIEIKIEKPPPVKIEIEAPSEEEKKKLEELLKSAGGSA [r15_42_TrROS_Hall] | 1.35 ± 0.44 kcal/mol | 4.15 ± 0.19 kcal/mol | 3.1 ± 0.38 kcal/mol
SLLEDFKITEIEPHQMPGGSPMITFRFGGYTIMINPGNGHYWIWVDGKIIFTIMIPVVPPDPNSPEDRKNSA [r9_1065_TrROS] | 2.69 ± 0.23 kcal/mol | 5.3 ± 0.25 kcal/mol | 4.1 ± 0.55 kcal/mol
SAGGSKIKIKLPDGSTIEIEVKGDTVKIKITVNGKTYTFELKVGETFTITFKDGTTLTIKLPKKKKSAGGSA [r2_57_TrROS_Hall] | 2.45 ± 0.2 kcal/mol | 5.33 ± 0.21 kcal/mol | 5.12 ± 0.37 kcal/mol
SAGGKIEVKKVEVFEDGTILAPLTNEDGKEDLVLVVDLEPVLDGDKVYYKAPVKLYKDGKLIAEFDIGSAGG [r13_1007_TrMRF] | -0.335 ± 0.21 kcal/mol | 1.89 ± 0.083 kcal/mol | 1.37 ± 0.19 kcal/mol
LDIEYDPDNGSFTVSFMVPIGPGHGVFVMVDYTFRFGPNGDIGIEWQISVMPIPPPPPKIDPEDQEKAQNKS [r1_4_TrROS] | 1.95 ± 0.12 kcal/mol | 3.99 ± 0.28 kcal/mol | 3.67 ± 0.47 kcal/mol
SAGGSDVSSLPSVVETQTTVTLPGGEKVPVTVKTFPEDSYTVETSPEGFERVTTADGVLVSLEKKSSAGGSA [r2_68_JUSTAS] | -0.967 ± 0.23 kcal/mol | 1.3 ± 0.024 kcal/mol | 0.784 ± 0.067 kcal/mol
SAGGEIKVEEKDGKLVLTIKDKNGKELKITFTKNKNGEITMEVENKDTGKKYTFKFKSLEEALEALKSAGGS [r8_230_TrROS_Hall] | 3.04 ± 0.23 kcal/mol | 6.06 ± 0.29 kcal/mol | 5.82 ± 0.55 kcal/mol
SAGGSAGGSAGGKDKTITKTIKVEVYTLKKDKKTGKWTPTEKFTVTLTVTVKVKPGEKISAGGSAGGSAGGS [r10_610_TrROS_Hall] | 2.16 ± 0.067 kcal/mol | 4.6 ± 0.082 kcal/mol | 4.19 ± 0.15 kcal/mol
SAGGSAVTMKVSLMIEIWFFNPDGQLIGPFWIMIEIEVPVKPVPVPPPPPIDPEEMAKKNGMDPEDSAGGSA [r15_572_TrROS] | 1.65 ± 0.042 kcal/mol | 3.82 ± 0.08 kcal/mol | 3.42 ± 0.14 kcal/mol
SAGGSAGGSKPETIEIEITIKNEDGSEYKIKATLIEVNGELYLRIEIKNKETNETFEFIFKLPSAGGSAGGS [r12_864_TrROS_Hall] | 1.85 ± 0.12 kcal/mol | 4.87 ± 0.43 kcal/mol | 4.49 ± 0.5 kcal/mol
SAGGSAGGSALDSLVPDIDLRVRVEPVPDDPSILRADVELSDGLVLEVEFLPSGVARVSLSGKGSAGGSAGG [r6_122_TrMRF] | -0.0307 ± 0.084 kcal/mol | -0.246 ± 0.11 kcal/mol | -0.0927 ± 0.058 kcal/mol
SSLMFKMKNEYPFPFGLFIKIEVWFHLRWDDGKLSLDIMVRIEIQPIPPVPPPPPPPKISPEQANDANKNSA [r9_965_TrROS] | 3.08 ± 0.19 kcal/mol | 5.33 ± 0.13 kcal/mol | 4.78 ± 0.27 kcal/mol
SAGGWWMITVKIEFPGNGKPIEIMVFIDDDPEKAEEKVREIAEFLGFPGVKVEVEIIPIDPGDPAFKKSAGG [r13_682_TrROS] | 1.69 ± 0.057 kcal/mol | 4.4 ± 0.11 kcal/mol | 3.95 ± 0.29 kcal/mol
SAGIEEIAKKLGLPIKERREVFEDPETGRRYALVVFKLPDGTYVVIFVDLTNPGDVKVEKRSPTEKLPSAGG [r19_72_JUSTAS] | 0.915 ± 0.02 kcal/mol | 2.982 ± 0.021 kcal/mol | 2.41 ± 0.075 kcal/mol
SAGGSAMITVKLEGKPVTVEILSREPKGRLVKAQAVVHRPDDGTEKTVSGLLSEEEIEKAIEEALASAGGSA [r15_944_JUSTAS] | -0.917 ± 0.32 kcal/mol | 0.143 ± 0.11 kcal/mol | -0.15 ± 0.12 kcal/mol
SAGGSPISLEVSTSTLPDGTLRVTTTATSPDSSRSYTVTLDFPPSQPEEIPARAAAEAAAIAADPAVASAGG [r13_968_JUSTAS] | -0.552 ± 0.19 kcal/mol | 1.35 ± 0.058 kcal/mol | 0.907 ± 0.086 kcal/mol
SAGGSAGGSAPEVLPLDFDELVALAGSGEPRLVINEFPDGGYAVFSFTPPDRTIELLDPFPASAGGSAGGSA [r18_400_TrMRF] | 0.302 ± 0.19 kcal/mol | 3.02 ± 0.11 kcal/mol | 2.37 ± 0.29 kcal/mol
SAGGSAGGKKVYEIKGLTPEQIRALVKENKGKVTIYYKDGKKEEKTIKEGDEIAPGETVYIEVESAGGSAGG [r6_303_TrROS_Hall] | 0.858 ± 0.11 kcal/mol | 1.74 ± 0.13 kcal/mol | 1.56 ± 0.21 kcal/mol
SAGGSAGGSDTVTLTILVRDPATNRWYLVEVELRRNPDGSLTARARVYDLDTGEWHEETFTLPSAGGSAGGS [r20_229_TrROS_Hall] | 2.9 ± 0.16 kcal/mol | 5.29 ± 0.079 kcal/mol | 5.04 ± 0.19 kcal/mol
SAGEIIIVDSPEEAKKLAEEKGYKVVIVYDKKTKKVTIYIYKDGKLVKKFEIDLNNPEIKELLKKLGIESAG [r5_458_TrROS_Hall] | 1.89 ± 0.086 kcal/mol | 4.88 ± 0.26 kcal/mol | 4.67 ± 0.58 kcal/mol

Sequence | folding stability dG unfold [1] | folding stability dG unfold [2] | folding stability dG unfold [3]
SAGGSAGGSAGGGPNSVRIEFFFLLPNGYIYRHKFEFNPNGNLEIEPEPVPIPKDDLKPSAGGSAGGSAGGS [r10_280_TrROS] | 2.12 ± 0.16 kcal/mol | 4.189 ± 0.038 kcal/mol | 3.49 ± 0.17 kcal/mol
SAGGKKYYLLVIVRDPIEKNPDGSLKYEEKPILIEADPEVWEKFAKEIEEELKKKGYEVKIERIPLDSAGGS [r8_10_TrMRF] | 2.29 ± 0.21 kcal/mol | 4.31 ± 0.28 kcal/mol | 3.73 ± 0.33 kcal/mol
SAGGSAKTVTVTVVIEMSPEDVEKLLEALRALLPPGATLTIVVLDKETNELYVFTITVPAPPPPEESAGGSA [r15_257_TrROS_Hall] | 2.52 ± 0.1 kcal/mol | 4.53 ± 0.083 kcal/mol | 4.12 ± 0.1 kcal/mol
SAGGSANPDTPKPVVTTVEETVEVPYSSEEEAEAVVKEIEEKNKGVKAEIKSLSEDGIATIVITKKSAGGSA [r15_387_JUSTAS] | -1.54 ± 0.47 kcal/mol | 1.62 ± 0.096 kcal/mol | 1.17 ± 0.2 kcal/mol
SAGGSAGGSAGEEKEYRIVVPFDSDDPEAFVRAVFDGIPPDVPIKAIDFNPELGYGVVVASAGGSAGGSAGG [r11_698_TrMRF] | 0.364 ± 0.091 kcal/mol | 1.07 ± 0.072 kcal/mol | 0.892 ± 0.11 kcal/mol
SAGGAPNWKIEKIEIEYPGRKIEVWRHDNMWFIHIPAPPGYPIRIKIKIEPDNGETQTQERTFPIPPPSAGG [r13_191_TrROS] | 1.75 ± 0.061 kcal/mol | 2.83 ± 0.073 kcal/mol | 2.37 ± 0.35 kcal/mol
SAGGSAGGPKELEIKIKITEIEYNPNGFYWINYEIEIPGGWKIEIDIMFNPNDGKISLNIHLVPSAGGSAGG [r6_977_TrROS] | 2.26 ± 0.31 kcal/mol | 5.38 ± 0.32 kcal/mol | 
SAGGAPPPPPVVRIRVKVRDPETGEVREFEIELTAEELEAGLSAEELARLLAEETGREVEIVEVEELSAGGS [r16_554_TrROS_Hall] | 4.77 ± 0.56 kcal/mol | 2.3 ± 0.53 kcal/mol | 
SAGGSAGGSPPFTITFIDENGKGVKKINLPFDPKKPSVLPLSEEEIKALKEELGPEAKSITLSSAGGSAGGS [r12_514_JUSTAS] | -0.658 ± 0.16 kcal/mol |  | < -1 kcal/mol
SAGGSAGGSAGGPIKVKADKVTVEKRRNPENGKEYVELTVPGPGGTRTGRFPAEDLDKISAGGSAGGSAGGS [r10_447_TrROS] | -0.654 ± 0.21 kcal/mol |  | < -1 kcal/mol
SAGGSAGGSAGMEIPEDWTVVEESEVPDERLVTVHNPKTGELYVVTQPPATGEETVERYLSAGGSAGGSAGG [r11_896_JUSTAS] | 0.0248 ± 0.2 kcal/mol |  | < -1 kcal/mol
KKYVEITIKIEIKNKDGSTVKIEFKLIKYDEKTKKVYIEMKVEVTNKNGEKKTFTKRFELPLDELKKLLEKS [r1_371_TrROS_Hall] | 1.73 ± 0.16 kcal/mol | 5.81 ± 0.59 kcal/mol | 
SMPISAEELAELFPGVVEIKPEPDSTVITAKDPNGTNPVFTLSPAGTVTVTTYTPGSGTTTTTTIPTALLSA [r9_427_JUSTAS] | 0.681 ± 0.025 kcal/mol |  | 0.159 ± 0.071 kcal/mol
SMASLSPEEILKRIINKVNELEAEGYPPEKTPIEVTVPWPDPAAAEATREAILKEYPKVKNITIRHVPPGSA [r9_341_JUSTAS] | 1.17 ± 0.23 kcal/mol |  | < -1 kcal/mol
MTLTITLPDGTKIEITIEKNEDGTYTITVKITLPNGEEVTITVTVSREELENMTLEELLAKALKEALEKLKS [r1_92_TrROS_Hall] | 2.83 ± 0.17 kcal/mol |  | > 6 kcal/mol
SAGMIEIEEKDGKLVIRITLKVPEEEEITEDELKKLLEELGLEIEEIKITVEKNENGETTVTVEIVIKPSAG [r5_922_TrROS_Hall] | 2.81 ± 0.31 kcal/mol |  | > 6 kcal/mol
SKLKLTLYNKDTGEKVEIEFDPETGKITIKVYDKNGKLVAEAEIEIKDGKITLTIKVNGKTYKIEITLPESA [r9_385_TrROS_Hall] | 3.93 ± 0.81 kcal/mol |  | > 6 kcal/mol
SAGGSAGGSAAVLPPDSTLTETEVTPLPNGDLLVTTTTTLVTPEPTLETTTTTTLVAVAGTGSAGGSAGGSA [r18_273_JUSTAS] | 1.94 ± 0.064 kcal/mol |  | 1.04 ± 0.057 kcal/mol
SMTIKIVNEETGEVYEITVDEETGKVTITLPNGEKVEATVVKIEFDEETGELYIYVKETGKVIKIKLEDLSA [r9_325_TrROS_Hall] | 3.2 ± 0.34 kcal/mol | 5.46 ± 0.35 kcal/mol | 
SEEELKKLLEKLLKELQEELNIEGKEITVEELKEALKKRLEELGFEVVEVKIEVKPDKTVKVEVKLKKKKSA [r9_52_TrROS_Hall] | 1.5 ± 0.09 kcal/mol |  | 3.62 ± 0.44 kcal/mol
SAGSPDLVTVTTEVRLPDEAEVAALVAANPDTEVRPLPDGTTLVTLTTTVRVPPPPYTPDPNSESLAPASAG [r5_129_JUSTAS] | 1.49 ± 0.049 kcal/mol |  | 0.852 ± 0.075 kcal/mol

Full records as entered above.
MTLTITLPDGTKIEITIEKNEDGTYTITVKITLPNGEEVTITVTVSREELENMTLEELLAKALKEALEKLKS [r1_92_TrROS_Hall] is entered as folding stability dG unfold [1] = 2.83 ± 0.17 kcal/mol; folding stability dG unfold [3] = > 6 kcal/mol
SMASLSPEEILKRIINKVNELEAEGYPPEKTPIEVTVPWPDPAAAEATREAILKEYPKVKNITIRHVPPGSA [r9_341_JUSTAS] is entered as folding stability dG unfold [1] = 1.17 ± 0.23 kcal/mol; folding stability dG unfold [3] = < -1 kcal/mol
